Laboratory results published in ChEMBL document CHEMBL3881524, “Use of benzothiazepines having activity as inhibitors of ileal bile acid transport for reducing cholesterololemia” (2005).

What was measured:
Mus musculus [1] = assay: Effect on plasma triglyceride level in LDL receptor/ApoE deficient mouse at 80 to 100 mg/kg/day mixed with R3 chow diet relative to untreated control; type: functional
Mus musculus [2] = assay: Reduction in plasma total cholesterol level in LDL receptor/ApoE deficient mouse at 80 to 100 mg/kg/day mixed with R3 chow diet by FPLC method relative to untreated control; type: functional; parameters: scale not given: the % may be the effect or the level left

SMILES: CC(C)c1c(C(=O)Nc2ccccc2)c(-c2ccccc2)c(-c2ccc(F)cc2)n1CC[C@@H](O)C[C@@H](O)CC(=O)[O-].CC(C)c1c(C(=O)Nc2ccccc2)c(-c2ccccc2)c(-c2ccc(F)cc2)n1CC[C@@H](O)C[C@@H](O)CC(=O)[O-].[Ca+2] [ATORVASTATIN CALCIUM]
- Activity (Mus musculus [1]): 59%
- Activity (Mus musculus [2]): 24%
